Data on 40 compounds can be found in PubChem BioAssay AID493014 (National Center for Advancing Translational Sciences (NCATS), 2011).

Each structure is given as a SMILES string. The list shows a part of the results. These are further read-outs of the screen, such as a control signal, another cell line or another target. No call is given for them. Most of these compounds were active or inconclusive in the main read-out, so they are no random draw. Words in brackets tell the shape of the fitted curve; partial curves, single points and poor fits give uncertain potencies.

This test in a line: qHTS Assay to Find Inhibitors of Chronic Active B-Cell Receptor Signaling. Conditions: ABC-DLBCL IkBa-CBG/CBR reporter, luminescence ratio (green luciferase fused to IkBa over red control in TMD8 lymphoma cells), 4 h. In short, it runs like this:
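TMD8 ABC-DLBCL cells carrying doxycycline-inducible green luciferase fused to IkappaBalpha plus unfused red luciferase were exposed to compounds (up to 46 uM) for 4 hrs at 37C. Activity came from the overlap-corrected green/red luminescence ratio.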
For orientation: qHTS replaces the single test concentration by a dilution series.

Where [1] appears, read: measured here: CBR red luminescence, cell number.
Setting [2] is: measured here: IkBa-CBG green luminescence.

One may read the AC50 as the concentration giving half of the maximal activity seen. Regarding `COC(=O)c1ccccc1NC(=O)Nc1cc(C)cc(C)n1`, the AC50 under setting [1] was 6.51 µM [rising, single point].
With `S=C(Nc1ccc2c(c1)OCO2)N1CCN(Cc2ccco2)CC1`, the AC50 under setting [1] was 0.794 µM [rising, full curve, poor fit].
Still for that read-out and setting: to `Cc1ccc(-c2nc(-c3ccncc3)no2)cc1C` belongs 0.631 µM [rising, full curve, poor fit]; to `CN(C)CCCn1c(NCc2ccc3c(c2)OCO3)nc2ccccc21`, 9.2 µM [falling, partial curve, poor fit]; to `Clc1ccc(Cc2nc(-c3cccnc3)no2)cc1`, 5.01 µM [rising, partial curve, poor fit].
On the same count and under the same terms, to `O=C(CCCOc1ccc(Cl)cc1Cl)N/N=C/c1ccc(Cl)cc1` belongs 0.651 µM [rising, full curve]; to `CC1=CC(C)(C)Nc2ccc(OC(=O)C(Cc3ccccc3)N3C(=O)c4ccccc4C3=O)cc21` (centres undefined), 8.91 µM [falling, partial curve].
Same read-out and setting: the value for `CC(=O)Nc1ccccc1O` was 31.6 µM [rising, single point].
`CS(=O)(=O)N(CC(=O)O)c1cccc(Cl)c1`: the AC50 under setting [1] was 1.03 µM [rising, partial curve, poor fit].
Same read-out and setting: to `Cc1ccc(OCCC(=O)OCC(=O)NCc2ccccc2)cc1` belongs 14.6 µM [falling, partial curve, poor fit]; to `CCc1ccc(CN(C(=O)c2cc3ccccc3oc2=O)C2CCS(=O)(=O)C2)cc1` (centres undefined), 12.6 µM [falling, single point]; to `COC(=O)c1ccc(C)c(NC(=O)CCSc2ccc(Cl)cc2)c1`, 35.5 µM [rising, single point].
On to `CC(C)(C)NC(=O)C(c1ccncc1)N(Cc1ccco1)C(=O)c1ccc(-c2ccccc2)[nH]1` (centres undefined), for which the AC50 under setting [1] was 14.1 µM [falling, single point].
Still for that read-out and setting: to `CCCCCC1C(=O)C[C@@H]2CCN3C(=O)CCC[C@H]1[C@H]23` (some centres undefined) belongs 14.6 µM [rising, partial curve, poor fit].
Consider `CCNC(=S)N/N=C(\C)c1ccc(Cl)s1`, for which the AC50 is 7.31 µM [rising, partial curve] under setting [1] and 10.3 µM [falling, partial curve] under setting [2].
As for `Cc1cccc2cc(/C=C/C(=O)c3ccco3)c(Cl)nc12`, the AC50 under setting [1] is 14.1 µM [falling, partial curve, poor fit].
The same measure, in the same setting: the value for `O=C(NCCCCNC(=O)c1cccnc1)c1cccnc1` was 0.13 µM [rising, full curve, poor fit].
`COc1ccccc1C(=O)Oc1cc(N)n(S(=O)(=O)c2ccccc2)n1`: the AC50 reads like this: under setting [1], 8.91 µM [falling, partial curve, poor fit]; under setting [2], 11.2 µM [falling, partial curve, poor fit].
Consider `Cc1oc(-c2ccccc2)cc1C(=O)Nc1cccc(C(=O)O)c1`, for which the AC50 was 0.0651 µM [rising, full curve, poor fit] under setting [1] and 0.651 µM [rising, full curve, poor fit] under setting [2].
For the compound `Cc1cc2ccccc2n2c(SCC(=O)NCc3cccs3)nnc12`, under setting [1], the AC50 is 18.4 µM [rising, partial curve, poor fit].
On the same count and under the same terms, to `Fc1ccccc1NC(=S)NCCc1cccc(Cl)c1` belongs 6.31 µM [rising, single point]; to `Cn1c(=O)c2c(nc(CN3CCN(C(c4ccccc4)c4ccccc4)CC3)n2CCCO)n(C)c1=O`, 22.4 µM [falling, partial curve, poor fit]; to `O=C(CN1CCN(Cc2ccc(Cl)cc2)C1=O)NCc1ccc(F)cc1`, 25.1 µM [falling, partial curve, poor fit].
On to `COc1cc(C(=O)OC(C)CN2CCCCC2)cc(OC)c1OC` (centres undefined), for which, under setting [1], the AC50 was 10 µM [rising, partial curve].
With `COc1ccc(OC)c(NC(=O)CCCNC(=O)c2ccc(Cl)cc2)c1`, under setting [1], the AC50 is 2.51 µM [rising, single point].
On the same count and under the same terms, to `Cc1ccc(C)c(SCC(=O)N(C)CC(=O)Nc2ccc(N3CCOCC3)cc2)c1` belongs 0.58 µM [rising, partial curve, poor fit]; to `CC(C)[C@H](NC(=O)c1ccccc1)C(=O)OCC(=O)N1CCCc2ccccc21`, 7.31 µM [rising, partial curve, poor fit].
The same measure, in the same setting: to `O=C(CCc1nc(-c2ccccc2F)no1)NCCN1CCc2ccccc2C1` belongs 10 µM [rising, partial curve, poor fit].
Turning to `Cc1[nH]n(-c2ccccc2)c(=O)c1/C=N/NC(=O)C(C)C`, the AC50 under setting [2] was 35.5 µM [falling, single point].
Turning to `Cc1ccc(NC(=O)c2ccc3c(c2)OCO3)cc1S(=O)(=O)N1CCOCC1`, the AC50 under setting [1] is 18.4 µM [falling, single point].
On to `CCCSc1nc2c(cnn2-c2ccccc2)c(=O)n1N`, for which the AC50 under setting [1] is 11.2 µM [falling, single point].
On the same count and under the same terms, to `COc1cc(SC)ccc1C(=O)Nc1ccc(Cl)cn1` belongs 3.16 µM [falling, full curve]; to `OCCNCc1ccc(OCc2ccc(Cl)cc2Cl)cc1`, 35.5 µM [falling, partial curve, poor fit].
With `Nc1cc(C(=O)N2CCCC2)cc(C(=O)N2CCCC2)c1`, the AC50 is 6.51 µM [falling, partial curve, poor fit] under setting [1] and 6.51 µM [rising, partial curve, poor fit] under setting [2].
In the case of `COCCN(CC(=O)Nc1cccc(C)c1C)C(=O)c1ccc2ccccc2n1`, the AC50 under setting [1] is 29.1 µM [rising, single point].
As for `O=C(NNC(=S)NC1CCCCC1)c1sc2ccccc2c1Cl`, the AC50 under setting [1] was 0.326 µM [falling, full curve, poor fit].
Still for that read-out and setting: the value for `COc1ccc(C(=O)/C(C)=N/O)cc1OC` was 1.46 µM [rising, partial curve, poor fit].
Take `COc1cc(OC)cc(-c2cc3ccccc3c(=O)o2)c1`: the AC50 under setting [1] is 2.59 µM [rising, single point].
Same read-out and setting: to `Cc1ccc(Nc2nc(C(=O)NCc3ccco3)cs2)cc1` belongs 11.2 µM [falling, partial curve, poor fit].
`Cc1cccc(-c2noc(CCC(=O)NCc3ccccc3)n2)c1`: the AC50 under setting [1] was 10 µM [rising, partial curve, poor fit].
